According to article PMC10651883, “M. mazei glutamine synthetase and glutamine synthetase-GlnK1 structures reveal enzyme regulation by oligomer modulation” (Nature Communications, 2023):
Positions count from the first letter of the chain named. Numbers in names are those of the source. These are yes or no findings as the source states them, for the method shown. Some results given as binding are weak or reduced against the parent protein; the word gives no strength. Each block holds one binder with its values, some of them ahead of it.

Tests used:
[1] = target: T1, Methanosarcina mazei glutamine synthetase (Methanosarcina mazei), Q8PY99; experiment: crystal structure; Mm GS-GlnK1 complex formed by mixing ~2:1 (excess GlnK1) and SEC; 30% PEG 400, 0.1 M sodium cacodylate pH 6.5, 0.1 M LiSO4; both purified; settings: remark: other sources report otherwise
T1 chain: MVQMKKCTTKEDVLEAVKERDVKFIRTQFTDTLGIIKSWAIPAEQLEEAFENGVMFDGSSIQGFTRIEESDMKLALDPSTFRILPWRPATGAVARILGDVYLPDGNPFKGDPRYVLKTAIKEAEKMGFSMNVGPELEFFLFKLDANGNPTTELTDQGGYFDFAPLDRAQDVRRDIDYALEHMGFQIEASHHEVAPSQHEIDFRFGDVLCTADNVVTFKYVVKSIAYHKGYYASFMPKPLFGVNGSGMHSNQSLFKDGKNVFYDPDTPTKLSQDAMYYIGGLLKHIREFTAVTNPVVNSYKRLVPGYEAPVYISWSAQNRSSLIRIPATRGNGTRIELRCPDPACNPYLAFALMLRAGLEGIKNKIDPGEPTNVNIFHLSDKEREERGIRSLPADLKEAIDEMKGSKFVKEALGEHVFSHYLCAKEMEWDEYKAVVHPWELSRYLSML

[2] = target: T2, Methanosarcina mazei glutamine synthetase (Methanosarcina mazei) (UniProt Q8PY99); experiment: fluorescence polarisation; apparent; GS titrated to saturation into 1 nM Fluorescein-12-ATP, then GlnK1 titrated in; 25 mM Tris pH 7.5, 100 mM NaCl, 1 mM MgCl2; both purified
T2 sequence: T1 chain

- binding [1]: binds
B1: Methanosarcina mazei GlnK1 (natural protein)
chain: MVAMKYVIAMIRPERLDAVKRELQKIEVSRLTVSSVSGYGAQKGYMEIYRAMEYDANLLEKIKIEIAVNDEFLEPTIEAIKTGAKGSDGYVGSGKIFVLPLENVIRIRTNETGPEAI
notes: GlnK1, PII family nitrogen regulatory protein of Methanosarcina mazei; gene bought from Genscript, in pET15b; Trimer in the crystal structure of the complex with GS; also called Mm GlnK1; WT GlnK1; source: E. coli C41(DE3), purified (cobalt NTA TALON)

- binding [2]: no binding
B2: Mm GlnK1(I48P-Y49P) (protein, UniProt Q8PYW7 1-117)
chain: B1 chain with I48P, Y49P
